T. brucei: 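Whole-parasite assay of Trypanosoma brucei over 72 hours; the read-out is not stated. Compounds at 30 µM. The record gives no direction; compounds that gave an IC50 in retests scored well above the rest, so higher reads as stronger inhibition. Values scatter widely below zero; nearly all retest evidence comes from the higher of the two concentrations used. Of about 64,000 compounds tested this way, about 940 (1.5%) reached 50% or more in at least one test.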
Leishmania in macrophages: 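Cell assay of Leishmania donovani living inside macrophages; the read-out is not stated. Tested at 30 µM. Direction is inferred from retests: higher values go with stronger inhibition. Of about 69,000 compounds tested this way, about 1,000 (1.5%) reached 50% or more in at least one test.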

The filed quantity is “Percent Effect” (%). How 0% and 100% were set is not recorded. Most values in the screen are low, and negative values occur. This is an unselected part of the compounds tested. Two or more numbers in one place are separate tests of the same structure; such repeats can differ widely.

CN1CCC(NC(=O)Cc2csc(C(C)(C)C)n2)CC1 gave T. brucei: 4.768%; Leishmania in macrophages: 20.66%. Result for CC(NC(=O)Nc1cccnc1N1CCCC1)c1ccccn1 (stereo not shown) was T. brucei: -19.05%; Leishmania in macrophages: 15.48%. With Cn1ccc2ccc(C(=O)N3CCN(C(=O)N4CCOCC4)CC3)cc21 the screen gave T. brucei: 16.41%; Leishmania in macrophages: -6.975%. With CNC(=O)C(CC(C)C)NC(=O)c1cccc(-c2n[nH]c(C)n2)c1 (stereo not shown) the screen gave T. brucei: -198.3%; Leishmania in macrophages: -61.27%. With CCC(=O)N1CCC1c1cc(NC2CCCC2)nc(C)n1 (stereo not shown) the screen gave T. brucei: -14.28%; Leishmania in macrophages: -8.575% and -11.66%.

COCCNCc1ccc(OCC(=O)NC(C)(C)C)cc1 gave T. brucei: -72.58%; Leishmania in macrophages: -22.57%. Result for Cc1nnc2n1CCN(C(=O)CN1C(=O)C(C)Oc3ccccc31)C2 (stereo not shown) was T. brucei: -24.39%; Leishmania in macrophages: 16.13%. With CCOCC1CN(Cc2cccs2)Cc2nn(C)cc21.O=C(O)C(F)(F)F (stereo not shown) the screen gave T. brucei: -3.631%; Leishmania in macrophages: 23.28%. With C=C(C)COc1ccc(C(=O)NCCn2c(C)cc(C)nc2=O)cc1 the screen gave T. brucei: 0.4276%; Leishmania in macrophages: 29.48%. O=C(O)c1cnc2c(cnn2C2CCCC2)c1 gave T. brucei: -8.329%; Leishmania in macrophages: 3.464%.

For O=C(c1nn[nH]c1Nc1ccc(Cl)cc1)N1CCCCCC1 the result was T. brucei: -12.4%; Leishmania in macrophages: 29.34%. With [H][C@@]12OCCN(C(=O)C3=CCCC3)[C@@]1([H])CC[C@@H]2OC the screen gave T. brucei: -197%; Leishmania in macrophages: -15.84%. Nc1nnc(SCc2cc(=O)n3c4c(sc3n2)CCCC4)s1 read T. brucei: -14.18%; Leishmania in macrophages: 25.94%. For c1cc(CNc2ccc(-c3nc(C4CC4)no3)cn2)no1 the result was T. brucei: 3.6%; Leishmania in macrophages: -11.11%. CN(C)c1cc(C2CCCN2C(=O)c2ccc(=O)n(C)c2)ccn1 (stereo not shown) gave T. brucei: -10.13%; Leishmania in macrophages: 32.08%.

Cc1cc(NCCC(=O)NC2CCS(=O)(=O)C2)nc(-c2ccncc2)n1 (stereo not shown) read Leishmania in macrophages: -6.452%. Result for CC(C)CNC1(Cc2cc(-c3ccccc3)on2)COC1 was T. brucei: -3.031%; Leishmania in macrophages: 13.6%. Result for CN(Cc1ccco1)Cc1cnc2n1CCN(S(C)(=O)=O)CC2.O=C(O)C(F)(F)F was T. brucei: -71.75%; Leishmania in macrophages: -3.649%. With O=C(c1ccco1)N1CCC[C@]2(C[C@H](Oc3ncccc3F)CO2)C1 the screen gave T. brucei: -29.75%; Leishmania in macrophages: -12.17%. CNC(=O)c1ccc(C(=O)N2CCCC(n3ccnc3C)C2)cn1 (stereo not shown) gave T. brucei: -1.483%; Leishmania in macrophages: -7.389%.

Result for CCN(CC(C)O)C(=O)Nc1cnn(CCOC)c1 (stereo not shown) was T. brucei: -50.78%; Leishmania in macrophages: -14.46%. With CC(C)CN1Cc2cccc(NC(=O)Cc3ccon3)c2C1 the screen gave T. brucei: -40.77%; Leishmania in macrophages: 8.724%. Result for COc1ccc(NC(=O)N2CCC3(CC2)NC(=O)CC3C(=O)O)cc1Cl (stereo not shown) was T. brucei: -15.69%; Leishmania in macrophages: 27.71%. With CC(C)CCn1c(=O)n(CCn2cccc2)c2cc(C(=O)O)cnc21 the screen gave T. brucei: -28.42%; Leishmania in macrophages: 12.44%. Cc1cccc(CC(=O)N2CCCC(N(C)CCCN(C)C)C2)c1 (stereo not shown) read T. brucei: 1.376%; Leishmania in macrophages: -4.896%.

For CC(Cn1cccn1)NCc1nc(-c2ccccn2)no1 (stereo not shown) the result was T. brucei: -7.796%; Leishmania in macrophages: -13.52%. Result for Cn1c(-c2cccs2)nn(CCNS(=O)(=O)c2ccccc2Cl)c1=O was T. brucei: 10.7%; Leishmania in macrophages: 18.61% and 3.473%. NC(=O)N1CCCC(C(=O)N2CCc3c(nc(CC4CC4)[nH]c3=O)C2)C1 (stereo not shown) gave T. brucei: -21.33%; Leishmania in macrophages: 22.96%. With CC(C)N1CCC(C(=O)N2CCC(C(O)c3nccn3C)CC2)CC1 (stereo not shown) the screen gave T. brucei: -4.063%; Leishmania in macrophages: 18.64%. Result for COc1ccc(CNc2cc3[nH]c(O)nc3cc2C)cc1 was T. brucei: -5.489%; Leishmania in macrophages: -2.641%.

With COc1ccc(CN(C(=O)C2CCOCC2)c2ccncc2)cc1 the screen gave T. brucei: -17.25%; Leishmania in macrophages: 6.133%. COc1c(C)cnc(CN(C)C2CCOC3(CCOCC3)C2)c1C (stereo not shown) gave T. brucei: -25.65%; Leishmania in macrophages: 5.753%. COc1ncccc1C(=O)NC1CCOc2ccccc21 (stereo not shown) gave T. brucei: -9.27%; Leishmania in macrophages: 30.58%. Result for CC(NCc1cnc(N2CCN(C)CC2)nc1)c1ccc(F)cc1 (stereo not shown) was T. brucei: -22.09%; Leishmania in macrophages: 58.55%. Result for c1cc(CCn2ccc(NC3CCSCC3)n2)ccn1 was T. brucei: -48.8%; Leishmania in macrophages: 7.615%.

The last 4 entries again:

* COc1c(C)cnc(CN(C)C2CCOC3(CCOCC3)C2)c1C (stereo not shown) | T. brucei: -25.65%; Leishmania in macrophages: 5.753%
* COc1ncccc1C(=O)NC1CCOc2ccccc21 (stereo not shown) | T. brucei: -9.27%; Leishmania in macrophages: 30.58%
* CC(NCc1cnc(N2CCN(C)CC2)nc1)c1ccc(F)cc1 (stereo not shown) | T. brucei: -22.09%; Leishmania in macrophages: 58.55%
* c1cc(CCn2ccc(NC3CCSCC3)n2)ccn1 | T. brucei: -48.8%; Leishmania in macrophages: 7.615%

The values are deposited in ChEMBL (CHEMBL3988442, “University of Dundee, Small-Polar-MMV Screening Library” (2021)).